Reference: PubChem BioAssay AID504804 (Drosophila RNAi Screening Center, 2011)

- Aim: 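dsRNAs that improve Kc cell survival under doxorubicin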 (primary screen)
- System: Drosophila Kc cells
- Reagents: long dsRNA against Drosophila genes, 0.5 µg dsRNA per well
- Duration: 96 h (48 h knock-down, then 48 h drug)
- Challenge: doxorubicin 5 µg/ml for 48 h, added 48 h after dsRNA
- Read-out: 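Viability measured as cellular ATP by luminescence after 48 h knock-down then 48 h doxorubicin at 5 µg/ml; unnormalised plate counts for each replicate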
- Scale: raw ATP luminescence: higher = more viable cells, protection from doxorubicin
- Active means: 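Active when both duplicate wells lie at least 2 SD above the plate mean and protection is confirmed by rescreening and independent dsRNAs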
In all, the deposit lists about 19,000 reagents; below is an unselected part of those that have a named target and a result. Over the whole deposit, 47 (0.25%) were called active. 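Signals are raw, not normalised; exact z-scores behind calls not deposited; actives needed confirmation, so some wells reaching 2 SD are inactive.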 A plus sign joins genes that one reagent is predicted to hit.

| Target gene | amplicon | raw ATP luminescence, replicate 1 | raw ATP luminescence, replicate 2 | activity call |
| --- | --- | --- | --- | --- |
| Usp20-33 (GeneID 36580) | DRSC07196 | 50337 | 44103 | inactive |
| SoYb (GeneID 34331) | DRSC02901 | 43153 | 69020 | inactive |
| CG43901 (GeneID 32024) | DRSC19397 | 3.38e5 | 3.05e5 | inactive |
| CG43901 (GeneID 32024) | DRSC19652 | 65760 | 75840 | inactive |
| CG13047 (GeneID 39790) | DRSC09928 | 45157 | 27503 | inactive |
| CG10919 (GeneID 40917) | DRSC14283 | 63167 | 66763 | inactive |
| CG7646 (GeneID 40187) | DRSC11232 | 64790 | 59490 | inactive |
| CG5498 (GeneID 40250) | DRSC11608 | 25230 | 20130 | inactive |
| CG11125 (GeneID 35669) | DRSC06042 | 51940 | 67723 | inactive |
| CG15771 (GeneID 31500) | DRSC18077 | 32840 | 40950 | inactive |
| Fkbp39 (GeneID 41860) | DRSC16667 | 38130 | 21923 | inactive |
| tyf (GeneID 31363) | DRSC18382 | 34130 | 50660 | inactive |
| CG5846 (GeneID 34326) | DRSC02904 | 84467 | 74740 | inactive |
| CG30275 (GeneID 246522) | DRSC04163 | 43353 | 57373 | inactive |
| Coq7 + shf | DRSC18448 | 38130 | 40250 | inactive |
| Gr39b (GeneID 117347) | DRSC01848 | 70550 | 54847 | inactive |
| Kr-h2 (GeneID 33859) | DRSC03356 | 25173 | 29167 | inactive |
| Cdk1 (GeneID 34411) | DRSC03504 | 1.06e5 | 80137 | inactive |
| ATPsynD (GeneID 42291) | DRSC14093 | 43120 | 65460 | inactive |
| CG5326 (GeneID 42655) | DRSC13568 | 2.01e5 | 2.11e5 | inactive |
| CG5326 (GeneID 42655) | DRSC15770 | 54430 | 43960 | inactive |
| CG11475 (GeneID 37513) | DRSC04113 | 73293 | 75967 | inactive |
| CG3588 (GeneID 31278) | DRSC18473 | 57840 | 42030 | inactive |
| ND-MNLL (GeneID 31697) | DRSC18159 | 26740 | 34500 | inactive |
| LS2 (GeneID 37681) | DRSC04340 | 36037 | 46743 | inactive |
| CG14803 (GeneID 31142) | DRSC18556 | 56690 | 47640 | inactive |
| CG10444 (GeneID 37294) | DRSC05990 | 55207 | 78973 | inactive |
| CG11000 (GeneID 40721) | DRSC12158 | 78703 | 62617 | inactive |
| Doa (GeneID 43415) | DRSC13892 | 2.74e5 | 2.23e5 | inactive |
| Doa (GeneID 43415) | DRSC13893 | 2.26e5 | 1.95e5 | inactive |
| Doa (GeneID 43415) | DRSC13895 | 2.49e5 | 2.01e5 | inactive |
| Doa (GeneID 43415) | DRSC13896 | 2.54e5 | 2.07e5 | inactive |
| Doa (GeneID 43415) | DRSC13897 | 2.43e5 | 2.24e5 | inactive |
| ZnT41F (GeneID 35513) | DRSC04850 | 60467 | 70810 | inactive |
| Ttc1 (GeneID 41993) | DRSC15016 | 84530 | 62940 | inactive |
| CG31496 (GeneID 326145) | DRSC12547 | 2.07e5 | 2.28e5 | inactive |
| fz3 (GeneID 31023) | DRSC18779 | 47540 | 55690 | inactive |
| Su(var)2-HP2 (GeneID 36621) | DRSC06204 | 59837 | 44443 | inactive |
| CG31223 (GeneID 326127) | DRSC15115 | 38370 | 39317 | inactive |
| Pp1-Y1 (GeneID 5740113) | DRSC20896 | 2.56e5 | 3.83e5 | inactive |
| CG12662 (GeneID 31825) | DRSC17865 | 41140 | 43590 | inactive |
| Rab3 (GeneID 36127) | DRSC07523 | 67353 | 47923 | inactive |
| AhcyL2 (GeneID 42043) | DRSC14107 | 77330 | 58570 | inactive |
| CG14636 (GeneID 40526) | DRSC12223 | 61993 | 65107 | inactive |

11 entries from above, set out differently:
Target gene	amplicon	raw ATP luminescence, replicate 1	raw ATP luminescence, replicate 2	activity call
CG5326 (GeneID 42655)	DRSC15770	54430	43960	inactive
CG11475 (GeneID 37513)	DRSC04113	73293	75967	inactive
CG3588 (GeneID 31278)	DRSC18473	57840	42030	inactive
ND-MNLL (GeneID 31697)	DRSC18159	26740	34500	inactive
LS2 (GeneID 37681)	DRSC04340	36037	46743	inactive
CG14803 (GeneID 31142)	DRSC18556	56690	47640	inactive
CG10444 (GeneID 37294)	DRSC05990	55207	78973	inactive
CG11000 (GeneID 40721)	DRSC12158	78703	62617	inactive
Doa (GeneID 43415)	DRSC13892	2.74e5	2.23e5	inactive
Doa (GeneID 43415)	DRSC13893	2.26e5	1.95e5	inactive
Doa (GeneID 43415)	DRSC13895	2.49e5	2.01e5	inactive

The list goes on:
| Target gene | amplicon | raw ATP luminescence, replicate 1 | raw ATP luminescence, replicate 2 | activity call |
| --- | --- | --- | --- | --- |
| DhpD (GeneID 40528) | DRSC12288 | 20307 | 24587 | inactive |
| DUBAI + Tmem18 | DRSC05344 | 93360 | 84123 | inactive |
| CG8765 (GeneID 40147) | DRSC11041 | 34177 | 38867 | inactive |
| CG6893 (GeneID 40038) | DRSC10742 | 55677 | 53030 | inactive |
| dos (GeneID 38321) | DRSC07992 | 42893 | 1.59e5 | inactive |
| Task6 (GeneID 41671) | DRSC16530 | 82140 | 79660 | inactive |
| eEF2 (GeneID 35422) | DRSC03737 | 37720 | 31007 | inactive |
| Or74a (GeneID 39929) | DRSC11245 | 35483 | 32350 | inactive |
| HP1D3csd (GeneID 32906) | DRSC19548 | 3.30e5 | 3.07e5 | inactive |
| CG33090 (GeneID 34835) | DRSC01908 | 81570 | 73913 | inactive |
| Tnpo-SR (GeneID 33465) | DRSC00546 | 79063 | 64490 | inactive |
| Cpr92A (GeneID 42333) | DRSC16000 | 70880 | 88840 | inactive |
| Sas-6 (GeneID 43555) | DRSC15061 | 58990 | 47790 | inactive |
| CG9717 (GeneID 43636) | DRSC16543 | 54970 | 37840 | inactive |
| Bcat (GeneID 32297) | DRSC19756 | 3.17e5 | 3.30e5 | inactive |
| VhaPPA1-2 (GeneID 41806) | DRSC16176 | 1.11e5 | 75910 | inactive |
| CG6204 (GeneID 42877) | DRSC15991 | 33587 | 42017 | inactive |
| Rbp1-like (GeneID 32293) | DRSC19828 | 3.47e5 | 3.60e5 | inactive |
| CG31910 + snoRNA:Me28S-G2743 (retired record) | DRSC00946 | 2.24e5 | 2.97e5 | inactive |
| Argk1 (GeneID 39041) | DRSC08959 | 1.52e5 | 1.83e5 | inactive |
| Argk1 (GeneID 39041) | DRSC09668 | 74170 | 79813 | inactive |
| Argk1 (GeneID 39041) | DRSC10460 | 55953 | 34520 | inactive |
| CG42748 (GeneID 35442) | DRSC03712 | 60690 | 80350 | inactive |
| CG42748 (GeneID 35442) | DRSC03713 | 65493 | 47590 | inactive |
| CG42748 (GeneID 35442) | DRSC03734 | 63593 | 72630 | inactive |
| vimar (GeneID 35609) | DRSC05026 | 85447 | 58493 | inactive |
| Cand1 (GeneID 34403) | DRSC01992 | 92897 | 55583 | inactive |
| CG8008 (GeneID 35935) | DRSC07053 | 66947 | 56523 | inactive |
| CG4907 (GeneID 42686) | DRSC15673 | 59770 | 73110 | inactive |
| CG11404 (GeneID 40474) | DRSC11656 | 50867 | 60030 | inactive |
| iav (GeneID 31621) | DRSC18363 | 33750 | 44810 | inactive |
| faf (GeneID 43749) | DRSC16942 | 62960 | 59450 | inactive |
| saturn (GeneID 317880) | DRSC09303 | 72773 | 76947 | inactive |
| RhoGEF64C (GeneID 38578) | DRSC08318 | 28487 | 32960 | inactive |
| RhoGEF64C (GeneID 38578) | DRSC08319 | 81813 | 91527 | inactive |
| CG9098 (GeneID 33840) | DRSC03136 | 1.05e5 | 69090 | inactive |
| CG11889 + CG11891 | DRSC14426 | 58360 | 53570 | inactive |
| CG11889 + CG11891 | DRSC14427 | 48590 | 47830 | inactive |
| rig (GeneID 37335) | DRSC06053 | 67500 | 52400 | inactive |
| Or13a (GeneID 32562) | DRSC20265 | 3.41e5 | 3.12e5 | inactive |
